Experiment [1] addresses T1, human B7H3 expressed on cell surface (human, UniProt Q5ZPR3 29-534).
T1 construct: whole, on cells; also called B7-H3 on LAN-1, Kelly, IMR-32 and other B7-H3 positive target cell lines
T1 sequence (looked up): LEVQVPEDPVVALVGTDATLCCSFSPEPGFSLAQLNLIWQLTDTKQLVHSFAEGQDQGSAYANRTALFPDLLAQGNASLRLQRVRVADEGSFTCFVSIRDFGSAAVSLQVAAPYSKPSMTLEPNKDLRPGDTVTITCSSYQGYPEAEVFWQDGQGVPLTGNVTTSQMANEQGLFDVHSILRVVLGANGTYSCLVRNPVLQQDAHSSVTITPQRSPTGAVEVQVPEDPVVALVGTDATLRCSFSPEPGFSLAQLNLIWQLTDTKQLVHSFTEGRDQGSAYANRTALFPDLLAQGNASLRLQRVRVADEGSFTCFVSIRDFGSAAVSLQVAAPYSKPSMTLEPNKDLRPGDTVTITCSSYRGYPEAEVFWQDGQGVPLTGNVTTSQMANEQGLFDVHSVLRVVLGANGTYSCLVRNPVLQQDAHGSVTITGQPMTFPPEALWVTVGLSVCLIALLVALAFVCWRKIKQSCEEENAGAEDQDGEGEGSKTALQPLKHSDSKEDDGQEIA
The experiment is described as follows: cell avidity (Lumicks Cell Avidity Analyzer), CAR-T cells on target cells.

Experiment [2] deals with T1, human B7H3 expressed on cell surface. The experiment is described as follows: cell avidity (Lumicks acoustic force), CAR-T cells on target cells with a range of B7H3 densities.

These are yes or no findings as the source states them, for the method shown. Some binding calls cover weakened binding; strength is not graded here.

B1: TE9-CD8H/Tm-CD28-CD3z chimeric antigen receptor (protein, not shown: small tags and cut ends)
chain: QVQLQQSGAALVKPGTSVKLSCKASGYTFTSYWMHWVKQRPGQGLEWIGMIHPKSGSVDYNEKFTNKATLTGDKSSGTAYMQLSSLTSEDSAVYYCARGGYGSPFDYWGQGTTVTVSSGGGGSGGGGSGGGGSENVLTQSPAIMSASPGEKVTMTCSASSSVSYMYWYQQKPGSSPRLLIYRTSNLASGVPARFSGSGSGTSYSLTISSMEAEDAATYYCQQWSSNPPTFGGGTKLEIK
Regarding B1, the binding entry in experiment [1] and in experiment [2] was “binds” throughout.

(Values after US20250382369A1 (UCL BUSINESS, published 2025).)
